{
  "source": "patent US20210223237A1",
  "about": "“COMPOSITIONS AND METHODS FOR STUDYING DRUG METABOLISM” (Boehringer Ingelheim International GmbH, priority 2020, published 2021)",
  "key": {"in vitro [1]": {"test": "in vitro", "conditions": "human, microsomes"}, "in vitro [2]": {"test": "in vitro", "conditions": "human, microsomes", "remark": "listed apart in the source"}, "[3]": {"test": "Microsomal binding (fu,mic) using HLM-beads", "conditions": "compound 1.0 μM, (SD)"}, "[4]": {"test": "Microsomal binding (fu,mic) using rapid equilibrium dialysis (RED)", "conditions": "compound 1.0 μM, (SD)"}},
  "data": [
    {"compound": "CN1C(=O)CN=C(c2ccccc2)c2cc(Cl)ccc21", "note": "[Diazepam, diazepam]", "values": [
      {"measurement": "fraction unbound at 5 min, 1 μM", "setting": "in vitro [1]", "value": 1},
      {"measurement": "fraction unbound at 6 h, 1 μM", "setting": "in vitro [2]", "value": 0.77},
      {"measurement": "fu,mic", "setting": "[3]; HLM 0.50 mg/ml", "value": "0.82 (0.07)"},
      {"measurement": "fu,mic", "setting": "[3]; HLM 1.0 mg/ml", "value": "0.66 (0.03)"},
      {"measurement": "fu,mic", "setting": "[4]; HLM 1.0 mg/ml", "value": "0.64 (0.02)"},
      {"measurement": "fu,mic", "setting": "[4]; HLM […]", "value": "0.96 (0.01)"}
    ]}
  ]
}
